The list does not hold the whole screen: it is rich in T/C values a quarter to a half above the control, in often repeated tests (any T/C) and in doses without a T/C. Further doses and runs are listed elsewhere. T/C is the treated group as % of the vehicle group. Some entries give survivors of the animals treated and no T/C: the source files T/C as zero there, which appears to mark a toxic dose or a test without result, not a measured value. Some survivor counts are full or nearly so, which does not show that the dose was tolerated: the source hardly ever lists a survival T/C far under the control, and the zero likely stands for such cases as well. Survivors were counted at the toxicity check, usually on the fifth day, unless a day is given; later deaths do not show. Schedules are NCI's codes, read here as Q, the interval in days (D) or hours (H), X, the number of doses. Some schedules carry Z or #; the key to these is not given. Where survival is the endpoint, this PubChem deposit counts one and a half times the control or more as active, and values a quarter to a half above the control carry no call in these data; other NCI protocols may use other cut-offs.
Tested on: L1210 leukemia ip in BDF1 mice, survival T/C
Assay: NCI In Vivo Anticancer Drug Screen. Data for tumor model L1210 Leukemia (intraperitoneal) in B6D2F1 (BDF1) mice
Details: T/C endpoint: mean survival time, higher T/C = longer survival
[1] = dose: 200.0 mg/kg/injection, schedule: Q04DX002 (ip), vehicle: saline with Tween-80
[2] = dose: 400.0 mg/kg/injection, schedule: Q01DX001 (ip), vehicle: saline
[3] = dose: 400.0 mg/kg/injection, schedule: Q01DX001 (ip), vehicle: carboxymethylcellulose (CMC)
[4] = dose: 200.0 mg/kg/injection, schedule: Q01DX009 (ip), vehicle: saline
[5] = dose: 200.0 mg/kg/injection, schedule: Q04DX003 (ip), vehicle: saline
[6] = dose: 400.0 mg/kg/injection, schedule: Q04DX003 (ip), vehicle: saline
[7] = dose: 100.0 mg/kg/injection, schedule: Q04DX003 (ip), vehicle: saline
[8] = dose: 100.0 mg/kg/injection, schedule: Q01DX Z (ip), vehicle: methylcellulose (MC)
[9] = dose: 400.0 mg/kg/injection, schedule: Q01DX009 (ip), vehicle: saline

Compound: CN(C)N=Nc1ccc(S(=O)(=O)Nc2ncccn2)cc1
- T/C [1]: 125 % of control
- T/C (dose: 264.0 mg/kg/injection, schedule: Q04DX003 (ip), vehicle: saline): 145 % of control
- T/C (dose: 600.0 mg/kg/injection, schedule: Q04DX003 (ip), vehicle: saline with Tween-80): 132 % of control

Compound: O=C1OC2CCCCC2OC1=O (configuration not stated)
- survivor count [2]: 0 of 6

Compound: CC/C(=C/C(F)(F)C(F)(F)C(F)(F)F)[N+](=O)[O-]
- survivor count [3]: 0 of 4

Compound: CC[N+](CC)(CC)CCC[n+]1ccc(/C=N\O)cc1
- survivor count [4]: 0 of 6
- survivor count [5]: 5 of 6
- survivor count [6]: 1 of 6

Compound: ClCCOCCOc1ccccc1OCCOCCCl
- survivor count [1]: 3 of 3

Compound: CN1CCCN(CCOC(c2ccccc2)c2ccccc2)CC1
- survivor count (dose: 125.0 mg/kg/injection, schedule: Q01DX Z (ip), vehicle: methylcellulose (MC)): 0 of 6

Compound: O=NN(CCF)C(=O)NC1C2CC3CC(C2)CC1C3 (configuration not stated)
- survivor count (dose: 100.0 mg/kg/injection, schedule: Q01DX001 (ip), vehicle: other): 5 of 10
- survivor count (dose: 200.0 mg/kg/injection, schedule: Q01DX001 (ip), vehicle: other): 0 of 10
- survivor count (dose: 400.0 mg/kg/injection, schedule: Q01DX001 (ip), vehicle: other): 0 of 10

Compound: CC[CH2][Sn]([CH2]CC)([CH2]CCC#N)[O]C(C)=O
- survivor count (dose: 6.25 mg/kg/injection, schedule: Q01DX009 (ip), vehicle: saline with Tween-80): 0 of 3
- survivor count (dose: 12.5 mg/kg/injection, schedule: Q01DX009 (ip), vehicle: saline with Tween-80): 0 of 3
- survivor count (dose: 25.0 mg/kg/injection, schedule: Q01DX009 (ip), vehicle: saline with Tween-80): 0 of 3
- survivor count (dose: 50.0 mg/kg/injection, schedule: Q01DX009 (ip), vehicle: saline with Tween-80): 1 of 3
- survivor count (dose: 100.0 mg/kg/injection, schedule: Q01DX009 (ip), vehicle: saline with Tween-80): 0 of 3
- survivor count (dose: 200.0 mg/kg/injection, schedule: Q01DX009 (ip), vehicle: saline with Tween-80): 0 of 3

Compound: NCCCNCCNCCCN
- survivor count [7]: 3 of 3
- survivor count [5]: 3 of 3
- survivor count (dose: 400.0 mg/kg/injection, schedule: Q04DX002 (ip), vehicle: saline): 0 of 3
- survivor count [6]: 1 of 3

Compound: COc1ccc(-c2nnc(Cl)o2)cc1
- survivor count [5]: 0 of 6
- survivor count [6]: 0 of 6

Compound: Cc1cccc(Nc2cc(C)nc(N)n2)c1
- survivor count [8]: 1 of 6
- survivor count (dose: 200.0 mg/kg/injection, schedule: Q01DX Z (ip), vehicle: methylcellulose (MC)): 5 of 6

Compound: Cc1cc(C)c2cc3cccc[n+]3cc2c1
- survivor count (dose: 8.0 mg/kg/injection, schedule: Q01DX015 (ip), vehicle: saline): 4 of 6
- survivor count (dose: 16.0 mg/kg/injection, schedule: Q01DX015 (ip), vehicle: saline): 0 of 6
- survivor count (dose: 32.0 mg/kg/injection, schedule: Q01DX001 (ip), vehicle: carboxymethylcellulose (CMC)): 3 of 6

Compound: C[P+](Cc1ccccc1)(c1ccccc1)c1ccccc1
- survivor count (dose: 9.5 mg/kg/injection, schedule: Q01DX001 (ip), vehicle: other): 0 of 6
- survivor count (dose: 19.0 mg/kg/injection, schedule: Q01DX001 (ip), vehicle: other): 1 of 6
- survivor count (dose: 38.0 mg/kg/injection, schedule: Q01DX001 (ip), vehicle: other): 0 of 6
- survivor count (dose: 75.0 mg/kg/injection, schedule: Q01DX001 (ip), vehicle: other): 0 of 6
- survivor count (dose: 150.0 mg/kg/injection, schedule: Q01DX001 (ip), vehicle: other): 0 of 6
- survivor count (dose: 300.0 mg/kg/injection, schedule: Q01DX001 (ip), vehicle: other): 0 of 6

Compound: c1ccc(NP2(Nc3ccccc3)=NP(Nc3ccccc3)(Nc3ccccc3)=NP(Nc3ccccc3)(Nc3ccccc3)=N2)cc1
- survivor count (dose: 400.0 mg/kg/injection, schedule: Q04DX003 (ip), vehicle: Klucel (hydroxypropylcellulose) (HPC)): 3 of 3

Compound: COC1=C(Nc2ccc(C)cc2)C(=O)C(OC)=C(Nc2ccc(C)cc2)C1=O
- survivor count [2]: 4 of 4

Compound: Cc1cc(N(C)C)nc(SCc2ccc(Cl)cc2Cl)n1
- survivor count [8]: 4 of 6

Compound: CC(CCc1ccccc1)NN (configuration not stated)
- survivor count (dose: 100.0 mg/kg/injection, schedule: Q01DX009 (ip), vehicle: saline): 0 of 6
- survivor count [7]: 4 of 4
- survivor count [4]: 0 of 6
- survivor count [5]: 3 of 4
- survivor count [9]: 0 of 6
- survivor count [6]: 0 of 4

Compound: COCCc1cccc(C)n1
- survivor count [9]: 0 of 6

Compound: CN=C(NN(C)C)c1ccc(NC(=O)c2ccc(C(=O)Nc3ccc(C(=NC)NN(C)C)cc3)cc2)cc1
- T/C (dose: 10.0 mg/kg/injection, schedule: Q01DX Z (ip), vehicle: carboxymethylcellulose (CMC)): 133 % of control
- survivor count (dose: 40.0 mg/kg/injection, schedule: Q01DX Z (ip), vehicle: carboxymethylcellulose (CMC)): 0 of 6
- survivor count (dose: 80.0 mg/kg/injection, schedule: Q01DX Z (ip), vehicle: carboxymethylcellulose (CMC)): 0 of 6
- survivor count (dose: 160.0 mg/kg/injection, schedule: Q01DX Z (ip), vehicle: carboxymethylcellulose (CMC)): 0 of 6

Compound: CNC(=O)C1OC(n2cnc3c(N)ncnc32)C(O)C1O (configuration not stated)
- survivor count (dose: 1.56 mg/kg/injection, schedule: Q01DX005 (ip), vehicle: saline): 0 of 6
- survivor count (dose: 3.12 mg/kg/injection, schedule: Q01DX005 (ip), vehicle: saline): 0 of 6
- survivor count (dose: 6.25 mg/kg/injection, schedule: Q01DX005 (ip), vehicle: saline): 0 of 6
- survivor count (dose: 12.5 mg/kg/injection, schedule: Q01DX005 (ip), vehicle: saline): 0 of 6
- survivor count (dose: 25.0 mg/kg/injection, schedule: Q01DX005 (ip), vehicle: saline): 0 of 6
- survivor count (dose: 50.0 mg/kg/injection, schedule: Q01DX005 (ip), vehicle: saline): 0 of 6
- survivor count (dose: 100.0 mg/kg/injection, schedule: Q01DX005 (ip), vehicle: saline): 0 of 6
- survivor count (dose: 200.0 mg/kg/injection, schedule: Q01DX005 (ip), vehicle: saline): 0 of 6

Compound: Clc1nc(N2CC2)nc(N2CC2)n1
- survivor count (dose: 30.0 mg/kg/injection, schedule: Q01DX001 (ip), vehicle: carboxymethylcellulose (CMC)): 2 of 6
- survivor count (dose: 60.0 mg/kg/injection, schedule: Q01DX001 (ip), vehicle: carboxymethylcellulose (CMC)): 0 of 6
- survivor count (dose: 75.0 mg/kg/injection, schedule: Q01DX001 (ip), vehicle: carboxymethylcellulose (CMC)): 1 of 6
- survivor count (dose: 150.0 mg/kg/injection, schedule: Q01DX001 (ip), vehicle: carboxymethylcellulose (CMC)): 0 of 6
- survivor count (dose: 300.0 mg/kg/injection, schedule: Q01DX001 (ip), vehicle: carboxymethylcellulose (CMC)): 0 of 6

Compound: CCCCNC(=NC)c1ccc(NC(=O)c2ccc(C(=O)Nc3ccc(C(=NC)NCCCC)cc3)cc2)cc1
- survivor count (dose: 10.0 mg/kg/injection, schedule: Q01DX Z (ip), vehicle: saline): 2 of 6
- survivor count (dose: 15.0 mg/kg/injection, schedule: Q01DX Z (ip), vehicle: saline): 0 of 6

Compound: N#CC[CH2][Sn]([I])([c]1ccccc1)[c]1ccccc1
- survivor count (dose: 100.0 mg/kg/injection, schedule: Q04DX003 (ip), vehicle: saline with Tween-80): 0 of 3
- survivor count (dose: 200.0 mg/kg/injection, schedule: Q04DX003 (ip), vehicle: saline with Tween-80): 0 of 3
- survivor count (dose: 400.0 mg/kg/injection, schedule: Q04DX003 (ip), vehicle: saline with Tween-80): 0 of 3

Compound: Cc1ncc(CC#N)c2c1OC(C)(C)OC2
- survivor count (dose: 100.0 mg/kg/injection, schedule: Q01DX001 (ip), vehicle: carboxymethylcellulose (CMC)): 0 of 4
- survivor count (dose: 200.0 mg/kg/injection, schedule: Q01DX001 (ip), vehicle: carboxymethylcellulose (CMC)): 0 of 4
- survivor count [3]: 0 of 4

Compound: CC1(O)c2cccc3c2C2(O)c4c1cccc4C(C)(O)c1cccc(c12)C3(C)O (configuration not stated)
- survivor count (dose: 400.0 mg/kg/injection, schedule: Q01DX009 (ip), vehicle: saline with Tween-80): 3 of 6
